Counter-ions that a name gives are not always drawn.
Tested on: LDL receptor/ApoE deficient mice
Assay: Combination study (experiment II): plasma lipids/lipoproteins after Compound (I), atorvastatin calcium salt or both
Assay type: in vivo
Method: Atorvastatin calcium salt (40 mg tablets) was ground into fine particles and mixed into regular mouse R^3-chow which then was pelleted (0.05% w:w). Compound (I) was dissolved in polyethanylglycol (PEG):ethanol:solutol:Water (4:1:0.5:8.5) vehicle and administered by gavage once a day in the afternoon.
Altogether 54 female LDL receptor/ApoE deficient mice were used (5 to 6 weeks old weighing 25 to 30 g at the start of the study; obtained from B&M/AS, Denmark). They were kept under standardized conditions with free access to water and chow. The light-cycle hours were between 6:00 a.m. and 6:00 p.m. In experiment I, the dose response study, the mice were treated with Compound (I) by gavage once a day in the afternoon the first three days and in the morning the last day. The control group on regular R^3-chow received the vehicle by gavage. In experiment II, the combination study, atorvastatin calcium salt (0.05%) was mixed with R^3 chow. The mice received atorvastatin calcium salt (0.05% in chow) and/or Compound (I) by gavage for 7 days. The control group received R^3 chow and vehicle.
Mice were starved 3 hours before they were scarified at 10 a.m. Animals were anaesthetized with isofluran, bled by cardiac puncture, and thereafter killed by cervical dislocation. Blood was collected into EDTA containing tubes, plasma was separated by centrifugation and stored at −70° C.
Cholesterol in plasma and in FPLC on line measurement was performed with a commercial cholesterol kit from Roche Diagnostics, GmbH, Germany, Cholesterol, CHOD-PAP 1489437.
Triglycerides in plasma was measured by using a commercial reagent kit, from Roche Diagnostics, GmbH, Germany, Triglycerides/GB, 450032.
The cholesterol distribution profiles were measured by using a size exclusion high performance liquid chromatography system, SMART, with column Superose 6 PC 3.2/30, (Amersham Pharmacia Biotec, Uppsala, Sweden). The chromatographic system was linked to an air segmented continuous flow system for online post-derivatization analysis of total cholesterol by using enzymatic colorimetric reagents. The SMART-system was connected to a sample injector, (Gina 50, Gynkotek HPLC, Germering, GmbH). Elution buffer consisted of 0.01M Tris, 0.03 M NaCl, pH 7.40, flow rate 35 ml/min. […] The absorbance was measured at […] with a UV/VIS detector, (Jasco UV-970, Jasco International Co, Ltd, Japan). […] The distribution of lipoproteins was continuously measured as total cholesterol by using enzymatic calorimetric reagent, reconstituted in water, double volume compared to manufacturer instructions. […] The various peaks in the profiles are designated LP-remnants, LDL, and HDL for simplicity, even though it is clear that the separation is determined primarily by the size of the lipoproteins. […]

[1] = one week, Compound (I) 10 μmol/kg/day by gavage, atorvastatin calcium salt 0.05% in chow

CC(C)c1c(C(=O)Nc2ccccc2)c(-c2ccccc2)c(-c2ccc(F)cc2)n1CC[C@@H](O)C[C@@H](O)CC(=O)O [Atorvastatin calcium salt, reference compound]
reduction of total plasma cholesterol (7 days, atorvastatin calcium salt 0.05% in diet (approximately 80-100 mg/kg/day), Compound (I) 10 μmol/kg/day): 25% | reduction of plasma triglycerides (7 days, atorvastatin calcium salt 0.05% in diet, Compound (I) 10 μmol/kg/day): 60% | Chol (plasma total cholesterol), % Change compared to control group [1]: −24% | TG (plasma triglycerides), % Change compared to control group [1]: −59%
